PubChem BioAssay AID602196 | INSERM – 2012
The whole screen tested about 23,000 reagents; shown is a random part of them. 455 of all reagents (2%) count as active. 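Active includes both protection and sensitisation; some change values fall well beyond the stated -50 to +50 range.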 Not all columns of the deposit are shown. Not stated in the record: the amount of reagent.

- Assay: 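Modifiers of cisplatin sensitivity in A549 cells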
- Cell system: human A549 lung cancer cells
- Knock-down reagent: siRNA pair against human genes
- Duration: 48 h transfection before cisplatin; time from cisplatin to read-out not stated
- Challenge: cisplatin at a dose killing half of control-siRNA cells; exact dose and duration not given
- Read-out: 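Shift in cisplatin death relative to control siRNA, from -50 (all cells die) to +50 (no cells die); siRNAs harmful on their own scored 0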
- Direction: two-siRNA summed score (-2 to +2): higher = both siRNAs protect from cisplatin killing; -2 means both sensitise
- Hit rule: 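siRNAs harmful alone (LDH or WST-1) get 0; others get +1 for less and -1 for more cisplatin killing; genes are active when the two siRNAs give the same sign, summing to ±2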
- Meaning of the calls: active = both siRNAs shift cisplatin killing the same way; inactive = no consistent shift, or siRNA harmful alone

gene knocked down	two-siRNA summed score (-2 to +2)	outcome
ASS1	1	inactive
GNAS	-1	inactive
HGF	0	inactive
LOC439999	0	inactive
EIF4A2	0	inactive
LOC284323	0	inactive
SEMA3B	0	inactive
KRT71	0	inactive
SLC46A2	0	inactive
FKBP8	0	inactive
DESI2	-1	inactive
TENM2	0	inactive
SARS1	0	inactive
PARP16	0	inactive
OR10A7	0	inactive
LHFPL7	0	inactive
MGC21874	0	inactive
LOC390345	1	inactive
LOC440909	0	inactive
SGF29	1	inactive
LOC390865	0	inactive
LOC442170	1	inactive
LOC440935	0	inactive
MKRN4P	0	inactive
PPP2R5C	-1	inactive
PAGE1	0	inactive
ESCO2	0	inactive
MTPAP	0	inactive
HMG20A	0	inactive
RPS19BP1	0	inactive
DEFA5	0	inactive
NPAP1	0	inactive
ODC1	0	inactive
ARMCX6	0	inactive
LIPI	0	inactive
SLC35G3	0	inactive
RNF115	0	inactive
FAM168A	0	inactive
YPEL2	0	inactive
HDGF	1	inactive
B2M	1	inactive
BOD1	0	inactive
EVC	2	active
LOC441643	1	inactive
CD99L2	1	inactive
RIF1	0	inactive
UPP2	0	inactive
AMZ2P1	0	inactive
CMC1	0	inactive
FAM170A	0	inactive
SPARCL1	0	inactive
ACBD6	0	inactive
LIMD2	0	inactive
CEBPA	0	inactive
SERPINB2	0	inactive
GTF2E1	1	inactive
RIPK2	0	inactive

2 entries from above, reformatted:
{"gene knocked down": "PAGE1", "two-siRNA summed score (-2 to +2)": 0, "outcome": "inactive"}
{"gene knocked down": "ESCO2", "two-siRNA summed score (-2 to +2)": 0, "outcome": "inactive"}
